The list shows a part of the results. The source does not settle which construct or isoform was used.

This test deals with T1, ETS1 (UniProt P14921).
T1 sequence: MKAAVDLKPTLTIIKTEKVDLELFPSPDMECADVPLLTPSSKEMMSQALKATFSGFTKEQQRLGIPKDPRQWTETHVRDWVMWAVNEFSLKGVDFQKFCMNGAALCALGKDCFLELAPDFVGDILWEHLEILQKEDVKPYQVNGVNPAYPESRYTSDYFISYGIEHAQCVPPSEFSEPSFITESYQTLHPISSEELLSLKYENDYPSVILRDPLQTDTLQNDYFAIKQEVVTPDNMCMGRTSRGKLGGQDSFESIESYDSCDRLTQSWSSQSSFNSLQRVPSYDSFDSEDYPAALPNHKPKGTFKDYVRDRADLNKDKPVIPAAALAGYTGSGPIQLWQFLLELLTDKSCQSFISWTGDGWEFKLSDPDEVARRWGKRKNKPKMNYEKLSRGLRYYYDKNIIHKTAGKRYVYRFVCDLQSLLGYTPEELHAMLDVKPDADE
Nature of the test: DAPPL (digital affinity profiling via proximity ligation, sequencing). Particulars: 10 mM Tris-HCl pH 7.5, 50 mM NaCl, 1 mM DTT, 4% glycerol, room temperature, 30 min; GST-TFs on glutathione beads, 16-mer random dsDNA library, 0.1% …; high values mean tight binding; double strand, one strand shown; scale: fold enrichment (6-mer frequency, TF over GST control).
As for CGCCCG, the binding signal was 1.14.

In turn, ACCAAT returned a binding signal of 1.35.

As for CCCACA, the binding signal was 1.08.

On to TACACG, for which the binding signal was 1.17.

With ATTAGC, the binding signal is 1.19.

With AACCTT, the binding signal amounted to 1.24.

In turn, GCGCTC showed a binding signal of 1.12.

With ATTATT, the binding signal is 1.22.

For TCGATT, the binding signal was determined as 1.

Regarding GATTCT, the binding signal was determined as 1.19.

Turning to TTTCTT, the binding signal came out at 1.36.

The sequence TTGCCT displayed a binding signal of 1.24.

Sequence TATTGG registered a binding signal of 1.18.

In turn, ATGATA came in with a binding signal of 1.26.

Consider CTTAGA, for which the binding signal is 1.15.

On to GCCCCT, for which the binding signal was determined as 1.34.

Sequence TATCCT yielded a binding signal of 1.75.

The sequence AAAAGT registered a binding signal of 1.12.

Regarding CGCTCT, the binding signal turned out to be 1.24.

For ATCGAA, the binding signal is 1.12.

With ATTCCC, the binding signal amounted to 1.31.

With TTTACA, the binding signal came to 1.28.

For the sequence TAGTAA, the binding signal amounted to 1.1.

Regarding TCTAAT, the binding signal came out at 1.15.

TAGTTT: the binding signal was 1.12.

Consider CCCGTT, for which the binding signal worked out at 1.13.

ATCTAG gave a binding signal of 1.1.

CTCTAA yielded a binding signal of 1.45.

For AACAAT, the binding signal was 1.36.

In turn, CGCTAG yielded a binding signal of 1.15.

Consider ACTAAA, for which the binding signal turned out to be 1.29.

AGCCTC registered a binding signal of 1.33.

As for CGACTT, the binding signal stood at 1.77.

For the sequence TGCTGC, the binding signal worked out at 1.06.

In turn, TCGACC returned a binding signal of 1.4.

Take TGTGTT: the binding signal was determined as 1.05.

Turning to AATGCA, the binding signal stood at 1.3.

As for TTGACA, the binding signal turned out to be 1.34.

TTCCTC had a binding signal of 2.07.

Values taken from paper PMC7862700.
